According to paper doi:10.1101/2022.09.05.506654:
These are yes or no findings as the source states them, for the method shown. Binding seen in cells or lysates may run through a third protein. Some entries that bind do so weakly or less than the wild type.

Chains of the proteins cited; added tags and fusions are not shown. Residues count along the entry.
UniProt P02340: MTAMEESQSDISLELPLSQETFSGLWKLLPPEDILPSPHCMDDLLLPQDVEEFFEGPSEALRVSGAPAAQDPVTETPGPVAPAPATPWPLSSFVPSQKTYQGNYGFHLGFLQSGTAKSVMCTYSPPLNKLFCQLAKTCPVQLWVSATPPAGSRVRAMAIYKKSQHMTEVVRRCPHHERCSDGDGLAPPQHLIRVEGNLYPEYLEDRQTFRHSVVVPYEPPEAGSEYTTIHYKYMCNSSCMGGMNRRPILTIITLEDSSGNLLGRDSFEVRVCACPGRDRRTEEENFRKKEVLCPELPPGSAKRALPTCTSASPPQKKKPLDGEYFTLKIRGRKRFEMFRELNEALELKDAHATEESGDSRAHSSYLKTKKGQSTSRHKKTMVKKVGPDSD
UniProt P38647, residues 47-679: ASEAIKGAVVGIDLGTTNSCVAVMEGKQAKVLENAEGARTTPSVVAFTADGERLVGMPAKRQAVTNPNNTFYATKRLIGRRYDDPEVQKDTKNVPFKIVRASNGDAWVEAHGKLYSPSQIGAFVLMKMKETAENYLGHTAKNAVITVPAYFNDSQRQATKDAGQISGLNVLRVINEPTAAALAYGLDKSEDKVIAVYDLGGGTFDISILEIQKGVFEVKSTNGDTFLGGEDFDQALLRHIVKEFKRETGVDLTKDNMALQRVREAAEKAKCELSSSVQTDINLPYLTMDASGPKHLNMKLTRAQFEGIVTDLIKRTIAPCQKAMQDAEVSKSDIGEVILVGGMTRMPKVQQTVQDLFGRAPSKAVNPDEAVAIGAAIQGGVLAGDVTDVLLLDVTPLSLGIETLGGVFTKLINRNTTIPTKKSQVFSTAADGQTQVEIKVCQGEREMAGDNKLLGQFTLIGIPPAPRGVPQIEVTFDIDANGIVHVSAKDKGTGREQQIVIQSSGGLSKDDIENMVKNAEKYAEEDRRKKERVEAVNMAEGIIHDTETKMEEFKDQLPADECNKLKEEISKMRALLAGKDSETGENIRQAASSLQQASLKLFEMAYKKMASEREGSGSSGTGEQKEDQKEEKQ

Legend:
[1] = target: p53, endogenous in murine endothelial cells (mouse (endogenous in murine endothelial cells)) (UniProt P02340); experiment: co-IP
[2] = target: T1, TERT, endogenous in murine endothelial cells (mouse (endogenous in murine endothelial cells)) (UniProt O70372); experiment: co-IP
T1 sequence: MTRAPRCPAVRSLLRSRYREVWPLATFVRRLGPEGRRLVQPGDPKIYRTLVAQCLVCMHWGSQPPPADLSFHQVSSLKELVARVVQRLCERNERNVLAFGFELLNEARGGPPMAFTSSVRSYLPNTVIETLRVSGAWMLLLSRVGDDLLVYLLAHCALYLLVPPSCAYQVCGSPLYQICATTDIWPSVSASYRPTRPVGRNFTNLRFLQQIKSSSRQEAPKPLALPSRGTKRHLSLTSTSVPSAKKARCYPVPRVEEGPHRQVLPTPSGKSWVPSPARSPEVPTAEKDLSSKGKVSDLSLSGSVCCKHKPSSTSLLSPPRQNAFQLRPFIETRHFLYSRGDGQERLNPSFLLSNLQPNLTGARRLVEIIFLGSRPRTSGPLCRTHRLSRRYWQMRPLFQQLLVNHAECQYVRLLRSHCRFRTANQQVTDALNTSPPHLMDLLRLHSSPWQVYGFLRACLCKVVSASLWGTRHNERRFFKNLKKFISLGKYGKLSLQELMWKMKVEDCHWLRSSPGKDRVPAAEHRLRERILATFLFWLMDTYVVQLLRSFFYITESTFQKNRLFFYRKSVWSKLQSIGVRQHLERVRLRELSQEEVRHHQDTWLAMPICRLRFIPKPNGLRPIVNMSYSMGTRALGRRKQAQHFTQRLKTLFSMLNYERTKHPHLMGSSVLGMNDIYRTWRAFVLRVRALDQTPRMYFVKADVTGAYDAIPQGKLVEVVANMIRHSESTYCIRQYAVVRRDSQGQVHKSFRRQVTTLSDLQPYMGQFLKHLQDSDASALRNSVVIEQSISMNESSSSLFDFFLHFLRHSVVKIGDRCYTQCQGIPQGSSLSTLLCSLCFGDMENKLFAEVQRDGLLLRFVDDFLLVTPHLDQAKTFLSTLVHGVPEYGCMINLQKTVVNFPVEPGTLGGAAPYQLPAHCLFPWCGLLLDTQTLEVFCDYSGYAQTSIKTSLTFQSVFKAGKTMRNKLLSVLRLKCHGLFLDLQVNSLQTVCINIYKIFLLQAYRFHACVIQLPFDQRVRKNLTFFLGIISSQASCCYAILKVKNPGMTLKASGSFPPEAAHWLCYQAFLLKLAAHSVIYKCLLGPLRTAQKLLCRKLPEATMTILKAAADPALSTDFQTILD

| Substance | binding [1] | binding [2] |
| --- | --- | --- |
| CSE, endogenous in murine endothelial cells (from UniProt Q8VCN5 1-398) (enzyme) | binds |  |
| HSP9a, endogenous in murine endothelial cells (from UniProt P38647 47-679) |  | binds |
